In patent US11325921B2, “Optically active crosslinked cyclic secondary amine derivative” (Sumitomo Dainippon Pharma Co., Ltd., priority 2018, dated 2022):
At least one structure is not confirmed: it was looked up by name or label, or the drawing left a doubt. Some compounds share one wording; it may come from a single statement.

Sequences of proteins named here, by UniProt entry; tags and fusion partners are left off. A line that says so, or that is headed by a name, gives the form on record, which may keep a tag or linker.
UniProt O00255, other isoform, or with tags, fused parts or gaps: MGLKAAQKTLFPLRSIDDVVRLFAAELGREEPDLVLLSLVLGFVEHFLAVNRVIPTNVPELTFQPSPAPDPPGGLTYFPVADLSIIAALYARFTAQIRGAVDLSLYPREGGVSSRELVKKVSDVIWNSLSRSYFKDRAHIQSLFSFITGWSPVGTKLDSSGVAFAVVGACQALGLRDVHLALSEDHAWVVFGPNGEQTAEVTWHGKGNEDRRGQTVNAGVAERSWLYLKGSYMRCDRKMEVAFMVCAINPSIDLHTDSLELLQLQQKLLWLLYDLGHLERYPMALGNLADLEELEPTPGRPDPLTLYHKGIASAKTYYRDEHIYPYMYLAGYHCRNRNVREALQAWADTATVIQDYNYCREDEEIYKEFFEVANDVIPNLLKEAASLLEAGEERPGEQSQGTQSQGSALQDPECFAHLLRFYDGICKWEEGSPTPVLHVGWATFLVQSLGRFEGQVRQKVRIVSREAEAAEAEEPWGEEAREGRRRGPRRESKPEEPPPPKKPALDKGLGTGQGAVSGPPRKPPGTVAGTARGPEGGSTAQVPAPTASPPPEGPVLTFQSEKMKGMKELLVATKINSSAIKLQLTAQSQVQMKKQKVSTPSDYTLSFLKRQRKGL

Assays:
RS4; 11 cells = test: Test 2: inhibition of cell proliferation, RS4; 11; format: cell-based; settings: 11 and MOLM-13 cells, summary of the table; for cell proliferation inhibitory activity (in words, potent): 'especially'
Description: RS4; 11 cells were obtained from American Type Culture Collection (ATCC). The cells were cultured at 37° C. in the presence of 5% CO2 in RPMI 1640 medium containing 10% fetal bovine serum and 1% penicillin/streptomycin. MOLM-13 cells were separately obtained from DSMZ. The cells were cultured at 37° C. in the presence of 5% CO2 in RPMI 1640 medium containing 20% fetal bovine serum and 1% penicillin/streptomycin.
The cells were plated to a 96-well plate in 2000 cells/well, each test compound was added thereto to adjust the final concentration of DMSO to 0.1% of DMSO, and the cells were cultured for 7 days. After the cultivation, the cell viability was calculated with PrestoBlue™ Cell Viability Reagent (Invitrogen, A13261). The IC50 value was calculated from a survival curve, that corresponds to the concentration of the test compound at which the cell proliferation inhibition rate is 50%.

[1] = test system: MEIS1 mRNA in MV4; 11 cells; test: Test 3: inhibition of mRNA transcription, MEIS1; format: cell-based; settings: MEIS1 and HOXA9, MV4, 1 μM, summary of the table
Description: MV4; 11 cells were obtained from American Type Culture Collection (ATCC). The cells were cultured at 37° C. in the presence of 5% CO2 in RPMI 1640 medium containing 10% fetal bovine serum and 1% penicillin/streptomycin. To the MV4; 11 cells was added each test compound to adjust the final concentration to 1 μmol/L, and the cells were cultured at 37° C. in the presence of 5% CO2 for 20 to 24 hours. After the incubation, the total RNA was extracted from the cells with RNeasy™ Mini Kit (QIAGEN, 74106), and cDNA was synthesized with Superscript™ VILO™ cDNA Synthesis Kit (Invitrogen, #11754250). By using TaqMan™ Gene Expression Master Mix (Applied Biosystems, 4369016) and TaqMan™ probe (Applied Biosystems), the expression level of mRNA was quantified from the obtained cDNA with 7900HT (Applied biosystems). The mRNA expression level of each obtained gene was fitted with the expression level of mRNA of GAPDH.

[2] = biological target: Menin-MLL binding (His-Menin1-615 / MLL1-172-FLAG) (Homo sapiens (Human), UniProt O00255); test: Test 1: inhibition of the Menin-MLL binding (HTRF); settings: summary of the table
Description: Menin1-615 wherein 6× His tag and HA tag are inserted in the N-terminus, and myc tag is inserted in the C-terminus (hereinafter, referred to as His-Menin1-615), was diluted with an assay buffer (25 mmol/L HEPES, 150 mmol/L NaCl, 1 mmol/L dithiothreitol, 0.5% (w/v) Tween 80, 0.3% (w/v) BSA, 0.3% (w/v) skim milk) to adjust the final concentration Lo 30 nmol/L. The test compounds were also diluted with the assay buffer to adjust each concentration of the test compounds to 0.005 to 5 μmol/L. The prepared His-Menin1-615 and test compounds were added to a light-shielding 384-well low-volume plate (Corning, #4514) in 2 μL/well and 6 μL/well, respectively, and the plate was covered with a lid for light-shielding (Corning, r-3935), and incubated at room temperature for 3 hours. After the incubation, MLL1-172 wherein FLAG tag is inserted in the C-terminus (MLL1-172-FLAG), was separately diluted with the assay buffer to adjust the final concentration to 50 nmol/L. The prepared MLL1-172-FLAG was added to the above plate in 2 μL/well, and the plate was covered with a lid for light-shielding and incubated at room temperature for an hour.
Then, anti-6HIS-d2 antibody (cisbio, 61HISDLA) and anti-FLAGM2-K antibody (cisbio, 61FG2KLA) were diluted with an antibody dilution buffer (50 mmol/L Tris, 150 mmol/L NaCl, 800 mmol/L KF, pH 7.4) to adjust the final concentration to 1.4 μg/mL to prepare an antibody mixture. The prepared antibody mixture was added to the above plate in 10 μL/well, and the plate was covered with a lid and incubated at 4° C. for 17 to 24 hours. After the incubation, the signal was detected with RUBYstar (BMG LABTECH). The binding inhibition rate (%) at each concentration of the test compounds was calculated from the following formula, and the IC50 value was obtained, that corresponds to the concentration of the test compound at which the binding inhibition rate is 50%.

Row | Structure (SMILES) | cell proliferation inhibition activity (in words, good) (RS4; 11 cells) | cell proliferation inhibitory activity (in words, potent) (RS4; 11 cells) | mRNA transcription inhibition activity (in words) [1] | Menin-MLL binding inhibition activity (in words) [2]
1 | O=C([C@H]1N[C@@H]2CC[C@H]1C2)N1CC2(C1)CN(c1c(C(F)(F)F)cnc3sc(CC(F)(F)F)cc13)C2 [Example 2, [(1R,3S,4S)-2-azabicyclo[2.2.1]heptan-3-yl]{6-[2-(2,2,2-trifluoroethyl)-5-(trifluoromethyl)thieno[2,3-b]pyridin-4-yl]-2,6-diazaspiro[3.3]heptan-2-yl}methanone] | good | potent | showed the mRNA transcription inhibition activity | potent
2 | O=C([C@H]1NC2CCC1CC2)N1CC2(C1)CN(c1c(C(F)(F)F)cnc3sc(CC(F)(F)F)cc13)C2 [Example 3, [(3S)-2-azabicyclo[2.2.2]octan-3-yl]{6-[2-(2,2,2-trifluoroethyl)-5-(trifluoromethyl)thieno[2,3-b]pyridin-4-yl]-2,6-diazaspiro[3.3]heptan-2-yl}methanone] | good | potent | showed the mRNA transcription inhibition activity | potent
3 | O=C([C@H]1N[C@H]2CC[C@@H]1C(F)(F)C2)N1CC2(C1)CN(c1c(C(F)(F)F)cnc3sc(CC(F)(F)F)cc13)C2 [Example 4, [(1S,3S,4S)-5,5-difluoro-2-azabicyclo[2.2.2]octan-3-yl]{6-[2-(2,2,2-trifluoroethyl)-5-(trifluoromethyl)thieno[2,3-b]pyridin-4-yl]-2,6-diazaspiro[3.3]heptan-2-yl}methanone] | good | – | showed the mRNA transcription inhibition activity | –
4 | O=C([C@H]1N[C@H]2CC[C@@H]1C[C@@H]2O)N1CC2(C1)CN(c1c(C(F)(F)F)cnc3sc(CC(F)(F)F)cc13)C2 [Example 6, [(1S,3S,4R,6S)-6-hydroxy-2-azabicyclo[2.2.2]octan-3-yl]{6-[2-(2,2,2-trifluoroethyl)-5-(trifluoromethyl)thieno[2,3-b]pyridin-4-yl]-2,6-diazaspiro[3.3]heptan-2-yl}methanone] | good | – | showed the mRNA transcription inhibition activity | potent
5 | O=C1C[C@@H]2CC[C@H]1[C@@H](C(=O)N1CC3(C1)CN(c1c(C(F)(F)F)cnc4sc(CC(F)(F)F)cc14)C3)N2 [Example 8, (1S,3S,4S)-3-{6-[2-(2,2,2-trifluoroethyl)-5-(trifluoromethyl)thieno[2,3-b]pyridin-4-yl]-2,6-diazaspiro[3.3]heptane-2-carbonyl}-2-azabicyclo[2.2.2]octan-5-one] | good | – | showed the mRNA transcription inhibition activity | –
6 | O=C([C@H]1N[C@H]2C[C@@H]1[C@@H](F)C2)N1CC2(C1)CN(c1c(C(F)(F)F)cnc3sc(CC(F)(F)F)cc13)C2 [Example 9, [(1S,3S,4S,5S)-5-fluoro-2-azabicyclo[2.2.1]heptan-3-yl]{6-[2-(2,2,2-trifluoroethyl)-5-(trifluoromethyl)thieno[2,3-b]pyridin-4-yl]-2,6-diazaspiro[3.3]heptan-2-yl}methanone] | good | potent | showed the mRNA transcription inhibition activity | potent
7 | O=C([C@H]1N[C@H]2CC[C@@H]1C[C@H]2F)N1CC2(C1)CN(c1c(C(F)(F)F)cnc3sc(CC(F)(F)F)cc13)C2 [Example 10, [(1S,3S,4R,6R)-6-fluoro-2-azabicyclo[2.2.2]octan-3-yl]{6-[2-(2,2,2-trifluoroethyl)-5-(trifluoromethyl)thieno[2,3-b]pyridin-4-yl]-2,6-diazaspiro[3.3]heptan-2-yl}methanone] | good | – | showed the mRNA transcription inhibition activity | –
8 | C=CCO[C@H]1C[C@H]2CC[C@@H]1N[C@@H]2C(=O)N1CC2(C1)CN(c1c(C(F)(F)F)cnc3sc(CC(F)(F)F)cc13)C2 [Example 11, {(1S,3S,4R,6S)-6-[(prop-2-en-1-yl)oxy]-2-azabicyclo[2.2.2]octan-3-yl}{6-[2-(2,2,2-trifluoroethyl)-5-(trifluoromethyl)thieno[2,3-b]pyridin-4-yl]-2,6-diazaspiro[3.3]heptan-2-yl}methanone] | good | – | showed the mRNA transcription inhibition activity | potent
9 | O=C([C@H]1N[C@H]2CC[C@@H]1C[C@@H]2OCc1ccccc1)N1CC2(C1)CN(c1c(C(F)(F)F)cnc3sc(CC(F)(F)F)cc13)C2 [Example 13, [(1S,3S,4R,6S)-6-(benzyloxy)-2-azabicyclo[2.2.2]octan-3-yl]{6-[2-(2,2,2-trifluoroethyl)-5-(trifluoromethyl)thieno[2,3-b]pyridin-4-yl]-2,6-diazaspiro[3.3]heptan-2-yl}methanone] | good | – | showed the mRNA transcription inhibition activity | –
10 | N#Cc1cnc2sc(CC(F)(F)F)cc2c1N1CC2(CN(C(=O)[C@H]3N[C@H]4CC[C@@H]3C(F)(F)C4)C2)C1 [Example 23, 4-{6-[(1S,3S,4S)-5,5-difluoro-2-azabicyclo[2.2.2]octane-3-carbonyl]-2,6-diazaspiro[3.3]heptan-2-yl}-2-(2,2,2-trifluoroethyl)thieno[2,3-b]pyridine-5-carbonitrile] | good | potent | showed the mRNA transcription inhibition activity | potent
11 | N#Cc1cnc2sc(CC(F)(F)F)cc2c1N1CC2(CN(C(=O)[C@H]3N[C@H]4CC[C@@H]3C(=O)C4)C2)C1 [Example 25, 4-{6-[(1S,3S,4S)-5-oxo-2-azabicyclo[2.2.2]octane-3-carbonyl]-2,6-diazaspiro[3.3]heptan-2-yl}-2-(2,2,2-trifluoroethyl)thieno[2,3-b]pyridine-5-carbonitrile] | good | – | – | potent
